Laboratory results taken from paper PMC8616366.
Results are given in words; binding and its absence hold for the method and conditions named. Binding seen in cells or lysates may run through a third protein. Some binding calls cover weakened binding; strength is not graded here.

The chains behind the UniProt entries cited, without tags or fusion partners. Residues count along the entry.
UniProt Q8BWG9: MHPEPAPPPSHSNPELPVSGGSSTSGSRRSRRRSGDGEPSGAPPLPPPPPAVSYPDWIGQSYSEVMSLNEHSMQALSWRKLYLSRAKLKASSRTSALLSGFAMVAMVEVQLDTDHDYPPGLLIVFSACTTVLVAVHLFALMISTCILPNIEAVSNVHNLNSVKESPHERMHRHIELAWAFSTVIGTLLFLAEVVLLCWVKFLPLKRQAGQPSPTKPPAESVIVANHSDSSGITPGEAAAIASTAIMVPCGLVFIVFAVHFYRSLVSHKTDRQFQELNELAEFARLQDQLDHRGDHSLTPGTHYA
UniProt O09165, residues 35-405: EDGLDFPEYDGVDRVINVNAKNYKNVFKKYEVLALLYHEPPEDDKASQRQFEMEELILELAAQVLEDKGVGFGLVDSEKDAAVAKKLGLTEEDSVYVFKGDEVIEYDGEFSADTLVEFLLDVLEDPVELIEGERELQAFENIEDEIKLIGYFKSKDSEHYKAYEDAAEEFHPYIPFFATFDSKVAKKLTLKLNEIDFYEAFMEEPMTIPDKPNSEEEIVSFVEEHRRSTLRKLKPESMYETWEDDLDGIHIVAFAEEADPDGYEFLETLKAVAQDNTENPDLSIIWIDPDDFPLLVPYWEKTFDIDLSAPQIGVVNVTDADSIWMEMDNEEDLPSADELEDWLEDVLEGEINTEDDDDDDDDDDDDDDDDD
UniProt P83093, residues 15-746: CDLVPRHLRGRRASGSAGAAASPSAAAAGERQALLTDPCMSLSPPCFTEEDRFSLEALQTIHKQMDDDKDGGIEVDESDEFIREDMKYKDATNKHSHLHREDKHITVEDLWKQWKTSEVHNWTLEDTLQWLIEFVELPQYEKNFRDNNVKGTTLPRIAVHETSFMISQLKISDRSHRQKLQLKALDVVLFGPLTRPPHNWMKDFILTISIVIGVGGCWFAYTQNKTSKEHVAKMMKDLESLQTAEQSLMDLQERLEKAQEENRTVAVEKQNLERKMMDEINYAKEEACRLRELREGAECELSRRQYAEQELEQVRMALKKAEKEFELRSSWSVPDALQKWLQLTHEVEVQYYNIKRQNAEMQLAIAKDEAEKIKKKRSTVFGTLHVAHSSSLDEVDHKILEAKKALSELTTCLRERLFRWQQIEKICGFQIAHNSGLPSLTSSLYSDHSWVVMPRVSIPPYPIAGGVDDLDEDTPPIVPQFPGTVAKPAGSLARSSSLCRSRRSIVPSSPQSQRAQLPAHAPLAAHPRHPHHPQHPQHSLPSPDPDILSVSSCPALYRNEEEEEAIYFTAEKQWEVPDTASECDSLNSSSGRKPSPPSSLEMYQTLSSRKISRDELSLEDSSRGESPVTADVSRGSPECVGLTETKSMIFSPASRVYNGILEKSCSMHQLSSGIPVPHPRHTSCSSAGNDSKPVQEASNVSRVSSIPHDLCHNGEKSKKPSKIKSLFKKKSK

Experiments:
[1] = target: Orai1, mouse primary skeletal myotubes (mouse (endogenous in primary skeletal myotubes)) (UniProt Q8BWG9); experiment: co-IP; lysate (100 µg of total protein) of mouse primary skeletal myotubes transfected with vector control, WT CASQ1 or C1, precipitated with anti-Orai1 antibody; immunoblot with anti-Orai1 or anti-STIM2; control without anti-Orai1 antibody
[2] = target: full-length wild-type CASQ1 (WT CASQ1) expressed in mouse primary skeletal myotubes (mouse) (UniProt O09165); experiment: co-IP; lysate (100 µg of total protein) of WT CASQ1 or C1-expressing mouse primary skeletal myotubes precipitated with anti-CASQ1 antibody; immunoblot with anti-CASQ1 or anti-STIM2; control without anti-CASQ1 antibody

Stromal interaction molecule 2 (STIM2), mouse primary skeletal myotubes (from UniProt P83093 15-746)
binding [1]: binds | binding [2]: binds
